The values that follow are results of earlier work, collected in US20050182029A1, “Metformin salts of lipophilic acids” (Sonus Pharmaceuticals, Inc., priority 2002, published 2005).

For this data set the following is noted: 95% relative humidity (25° C.), at 6 hours.

Turning to `CN(C)C(=N)NC(=N)N.Cl` [Metformin hydrochloride, N,N-dimethylimidodicarbonimidic diamide hydrochloride], the “hygroscopicity, moisture uptake” value was “greater than 20%”.
